From PMC7377239, “Cardiovascular Effects of Polychlorinated Biphenyls and Their Major Metabolites” (Environmental Health Perspectives, 2020)
Where a name gives a salt, the structure may show the parent alone.

Test system: iPSC-CMs, iPSC-ECs and HUVECs phenotypes
Experiment: ToxPi 2.0 integration of POD values and physicochemical descriptors
Parameters: species or system human
Conditions: for ToxPi_Score_Bioactivity: Biological Activity ToxPi, POD values of iPSC-CM, iPSC-EC and HUVEC phenotypes integrated; for ToxPi_Score_ChemBiol: Chemical-Biological Integration ToxPi, in vitro data plus physicochemical descriptors; for huvec.mtl.18hr ToxPi / huvec.tlps.18hr ToxPi / huvec.tta.18hr ToxPi / huvec.ttl.18hr ToxPi / huvec.cyto.24hr ToxPi / huvec.mito.24hr ToxPi / huvec.mitoint.24hr ToxPi / huvec.nma.24hr ToxPi / huvec.tc.24hrs ToxPi: HUVECs; for huvec.mtl.18hr ToxPi / huvec.tlps.18hr ToxPi / huvec.tta.18hr ToxPi / huvec.ttl.18hr ToxPi / huvec.cyto.24hr ToxPi / huvec.mito.24hr ToxPi / huvec.mitoint.24hr ToxPi / huvec.nma.24hr ToxPi / huvec.tc.24hrs ToxPi / endo.mtl.18hr ToxPi / endo.tlps.18hr ToxPi / endo.tta.18hr ToxPi / endo.ttl.18hr ToxPi / endo.cyto.24hr ToxPi / endo.mito.24hr ToxPi / endo.mitoint.24hr ToxPi / endo.nma.24hr ToxPi / endo.tc.24hrs ToxPi: scaled from POD; for endo.mtl.18hr ToxPi / endo.tlps.18hr ToxPi / endo.tta.18hr ToxPi / endo.ttl.18hr ToxPi: iPSC-EC tube formation; for endo.cyto.24hr ToxPi / endo.mito.24hr ToxPi / endo.mitoint.24hr ToxPi / endo.nma.24hr ToxPi / endo.tc.24hrs ToxPi: iPSC-EC
From the text: Phenotypic responses were quantitatively assessed using concentration–response modeling as detailed elsewhere ([Sirenko et al. 2017]). Briefly, phenotypic readouts were normalized to vehicle controls and fit to a four-parameter logistic model in R studio software (version 3.1.1; R Development Core Team). Following EPA guidance on dose–response modeling, a cutoff of one standard deviation across means of vehicle control (i.e., 0.5% vol/vol DMSO in cell culture media) wells was applied to determine the point-of-departure (POD) values ([U.S. EPA 2012]). In the absence of a concentration–response, the highest tested concentration (i.e., 100μM ) was assigned as “no observable adverse effect level.” The concentration–response assessment R script, as well as templates for vehicle and concentration–response data, are available as a supplement to Sirenko et al. ([2017]). The ability of physicochemical properties to predict differences in PODs were evaluated by multiregression and mixed-effects modeling using R.
POD values were then integrated using ToxPi 2.0 ([Marvel et al. 2018]) software. In ToxPi, each slice is representative of cell type– and time-point–specific phenotypes. The area of each slice is proportional to the relative value (e.g., bioactivity or physicochemical descriptor value) of the chemical within the data set. ToxPi scores were used to rank PCBs and their metabolites according to their overall bioactivity and to determine variability in total observable biological responses and chemical characteristics for each major metabolite class and chlorination status (mono-, hexa-chlorinated). Additional visualizations such as dumbbell and principal components analysis plots were generated in R Studio (version 1.1.456; R version 3.5.1; R Development Core Team) using the ggplot2 package.

## O=S(=O)(O)Oc1cc(Cl)c(-c2cc(Cl)ccc2Cl)cc1Cl [4-PCB 52 sulfate]
  ToxPi_Score_Bioactivity: 0.4222
  ToxPi_Score_ChemBiol: 0.6505

## O=S(=O)(O)Oc1ccc(-c2cccc(Cl)c2)cc1Cl [4-yl PCB 11 sulfate]
  huvec.mtl.18hr ToxPi: 0.44
  huvec.tlps.18hr ToxPi: 0.25
  huvec.tta.18hr ToxPi: 0.00
  huvec.ttl.18hr ToxPi: 0.00
  huvec.cyto.24hr ToxPi: 0.0743
  huvec.mito.24hr ToxPi: 0.09
  huvec.mitoint.24hr ToxPi: 0.44
  huvec.nma.24hr ToxPi: 0.45
  huvec.tc.24hrs ToxPi: 0.0743
  endo.mtl.18hr ToxPi: 0.14
  endo.tlps.18hr ToxPi: 0.33
  endo.tta.18hr ToxPi: 0.14
  endo.ttl.18hr ToxPi: 0.13
  endo.cyto.24hr ToxPi: 0.00
  endo.mito.24hr ToxPi: 0.00
  endo.mitoint.24hr ToxPi: 0.00
  endo.nma.24hr ToxPi: 0.00
  endo.tc.24hrs ToxPi: 0.00
iPSC-CM
  cm.amp.avg.24hrs ToxPi: 0.22
  cm.amp.avg.90min ToxPi: 0.54
  cm.amp.cv.24hrs ToxPi: 0.38
  cm.amp.cv.90min ToxPi: 0.21
  cm.bpm.24hrs ToxPi: 0.29
  cm.bpm.90min ToxPi: 0.31
  cm.cam.24hrs ToxPi: 0.38
  cm.cam.90min ToxPi: 0.00
  cm.decay.rise.24hrs ToxPi: 0.33
  cm.decay.rise.90min ToxPi: 0.42
  cm.mii.24hrs ToxPi: 0.19
  cm.mii.90min ToxPi: 0.00
  cm.mito.24hrs ToxPi: 0.57
  cm.mito.90min ToxPi: 0.00
  cm.spacing.cv.24hrs ToxPi: 0.26
  cm.spacing.cv.90min ToxPi: 0.10
  cm.tc.24hrs ToxPi: 0.63
  cm.tc.90min ToxPi: 0.00

## O=S(=O)(O)Oc1cc(Cl)c(-c2cc(Cl)ccc2Cl)cc1Cl [4-yl PCB 52 sulfate]
90min
  cm.amp.avg.90min ToxPi: 0.56
  cm.amp.cv.90min ToxPi: 0.28
  cm.bpm.90min ToxPi: 0.37
  cm.cam.90min ToxPi: 0.92
  cm.decay.rise.90min ToxPi: 0.47
  cm.mii.90min ToxPi: 0.33
  cm.mito.90min ToxPi: 0.92
  cm.spacing.cv.90min ToxPi: 0.10
  cm.tc.90min ToxPi: 0.91
24hrs
  cm.amp.avg.24hrs ToxPi: 0.00
  cm.amp.cv.24hrs ToxPi: 0.43
  cm.bpm.24hrs ToxPi: 0.37
  cm.cam.24hrs ToxPi: 0.34
  cm.decay.rise.24hrs ToxPi: 0.47
  cm.mii.24hrs ToxPi: 0.21
  cm.mito.24hrs ToxPi: 0.54
  cm.spacing.cv.24hrs ToxPi: 0.21
  cm.tc.24hrs ToxPi: 0.57
  huvec.mtl.18hr ToxPi: 0.43
  huvec.tlps.18hr ToxPi: 0.43
  huvec.tta.18hr ToxPi: 0.00
  huvec.ttl.18hr ToxPi: 0.00
  huvec.cyto.24hr ToxPi: 0.30
  huvec.mito.24hr ToxPi: 0.40
  huvec.mitoint.24hr ToxPi: 0.10
  huvec.nma.24hr ToxPi: 0.14
  huvec.tc.24hrs ToxPi: 0.30
  endo.mtl.18hr ToxPi: 0.27
  endo.tlps.18hr ToxPi: 0.46
  endo.tta.18hr ToxPi: 0.22
  endo.ttl.18hr ToxPi: 0.22
  endo.cyto.24hr ToxPi: 0.15
  endo.mito.24hr ToxPi: 0.15
  endo.mitoint.24hr ToxPi: 0.00
  endo.nma.24hr ToxPi: 0.00
  endo.tc.24hrs ToxPi: 0.12

## Oc1cc(Cl)cc(-c2cccc(Cl)c2)c1 [5-OH PCB 11]
  huvec.mtl.18hr ToxPi: 0.60
  huvec.tlps.18hr ToxPi: 0.00
  huvec.tta.18hr ToxPi: 0.00
  huvec.ttl.18hr ToxPi: 0.17
  huvec.cyto.24hr ToxPi: 0.48
  huvec.mito.24hr ToxPi: 0.57
  huvec.mitoint.24hr ToxPi: 0.68
  huvec.nma.24hr ToxPi: 0.56
  huvec.tc.24hrs ToxPi: 0.48
  endo.mtl.18hr ToxPi: 0.31
  endo.tlps.18hr ToxPi: 0.46
  endo.tta.18hr ToxPi: 0.24
  endo.ttl.18hr ToxPi: 0.24
  endo.cyto.24hr ToxPi: 0.15
  endo.mito.24hr ToxPi: 0.15
  endo.mitoint.24hr ToxPi: 0.08
  endo.nma.24hr ToxPi: 0.34
  endo.tc.24hrs ToxPi: 0.15
iPSC-CM
  cm.amp.avg.24hrs ToxPi: 0.07
  cm.amp.avg.90min ToxPi: 0.65
  cm.amp.cv.24hrs ToxPi: 0.22
  cm.amp.cv.90min ToxPi: 0.27
  cm.bpm.24hrs ToxPi: 0.15
  cm.bpm.90min ToxPi: 0.74
  cm.cam.24hrs ToxPi: 0.27
  cm.cam.90min ToxPi: 0.75
  cm.decay.rise.24hrs ToxPi: 0.27
  cm.decay.rise.90min ToxPi: 0.58
  cm.mii.24hrs ToxPi: 0.65
  cm.mii.90min ToxPi: 0.40
  cm.mito.24hrs ToxPi: 0.41
  cm.mito.90min ToxPi: 0.81
  cm.spacing.cv.24hrs ToxPi: 0.27
  cm.spacing.cv.90min ToxPi: 0.08
  cm.tc.24hrs ToxPi: 0.51
  cm.tc.90min ToxPi: 0.81

## Oc1cc(Cl)cc(-c2cccc(Cl)c2)c1 [5-OH-PCB 11]
  ToxPi_Score_Bioactivity: 0.478
  ToxPi_Score_ChemBiol: 0.4567
